Data reported in patent publication US12569532B2, “Brain function regulating agent, and food or beverage product containing same” (NITTA GELATIN INC., priority 2019, dated 2026).
Not every detail of the peptide structures is certain; ends, links or a residue may be inferred. Where a SMILES comes first, the peptide text is derived from it. [ ]: non-standard residue; d: D form. Hyp = O=C(O)[C@@H]1C[C@@H](O)CN1

Columns and labels:
[1] = system: cerebellar granule cells (CGC); settings: Table 8
[2] = system: cerebellar granule cells (CGC); experiment: Evaluation Test 2: viability of primary-cultured CGC by MTT assay (differentiation promoting action); settings: Tables 5 to 7

In the case of `N[C@@H](CCC(=O)O)C(=O)N1C[C@H](O)C[C@H]1C(=O)NCC(=O)O` [EOG, Glu-Hyp-Gly] (H-Glu-[Hyp]-Gly-OH; N-terminus and C-terminus assumed), the “concentration of EOG giving a significant differentiation promoting action on CGC” value [1] is reported as no less than 7 µM, the “CGC death suppressive action” value [2] is reported as “had a CGC death suppressive action” and the “differentiation promoting action on CGC” value [2] is reported as “had an action of promoting differentiation of CGC by directly acting on CGC”.
